About 7,700 (2.3%) of roughly 330,000 compounds were called active. This list was built around the results that the source calls inconclusive (neither active nor inactive); the mix of calls is not that of the screen. The call rests on the fitted dose curve; in most records, active means well fitted inhibition curve with a large enough effect; inconclusive means small, poorly fitted or top-dose-only effect, or effect the other way; inactive means flat fitted curve, though single readings scatter. A potency beside an inconclusive call is a rough fit, not a confirmed value.
assay: qHTS screen for small molecules that inhibit ELG1-dependent DNA repair in human embryonic kidney (HEK293T) cells expressing luciferase-tagged ELG1; conditions: HEK293T ELG1-luciferase reporter, luminescence, 16 h, DNA damage induced by 5-fluorouridine; activity change, negative = inhibition: at 46.1 µM (top of the series); further: nearly all actives have a fitted effect of over 55% in size
Summary of the method: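 Quantitative HTS, concentration-response format. 2,000 cells/well co-treated with 5-fluorouridine and compound, 16 hr in 5% CO2 at 37 °C; ONE-Glo luminescence read after 30 min.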
On the % scale 0 is the no-effect control and ±100 the full control effect; potency means the concentration at half of the fitted maximal effect.

| Structure (SMILES) | activity change, negative = inhibition | Potency |
| --- | --- | --- |
| O=C(NCCS(=O)(=O)N1CCN(Cc2ccccc2)CC1)c1ccc(F)cc1 | inactive: 13.1% | – |
| COc1ccc(NC(=S)NC2CCN(Cc3ccccc3)CC2)cc1OC | inactive: 14.6% | – |
| O=C(Nc1ccc(-c2nc3ccccc3o2)cc1)c1cc(-n2cnnc2)ccc1Cl | – | inconclusive: 23.1 µM [inhibitor, single point] |
| CN1CCSc2ccc(C(=O)Nc3cc(F)ccc3F)cc21 | – | inconclusive: 2.06 µM [activator, full curve] |
| CCOC(=O)C1=C(CCl)NC(=O)NC1c1ccc2c(c1)OCO2 (configuration not stated) | – | inconclusive: 15.8 µM [inhibitor, single point] |
| CCOC(=O)N1CCN(S(=O)(=O)c2ccc(OC)c(Cl)c2)CC1 | inactive: 0.524% | – |
| Cc1ccc([N+](=O)[O-])cc1S(=O)(=O)Nc1ccc(O)c(Sc2ncn[nH]2)c1 | inactive: 1.68% | – |
| OC(COCC1COc2ccccc2O1)CN1CCN(c2ccccc2F)CC1 (configuration not stated) | inactive: 0.79% | – |
| Cc1ccc(C(=O)Nc2cccc(C(=O)N/N=C/c3ccc(O)cc3)c2)cc1 | – | inconclusive: 4.11 µM [activator, full curve] |
| CC(C)(C)OC(=O)Nc1ncnc2c1ncn2C1OC(CO)C2OC(C)(C)OC21 (configuration not stated) | inactive: 19% | – |
| Nc1cccc(-c2ccc(CO)o2)c1 | – | inconclusive: 29.1 µM [activator, single point] |
| Nc1cc(C(Cl)=C(Cl)Cl)c(S(N)(=O)=O)cc1S(N)(=O)=O | inactive: 9.47% | – |
| O=C1CC(c2ccco2)Sc2nc3ccccc3n21 (configuration not stated) | – | inconclusive: 13 µM [activator, partial curve] |
| CN1CCC(=O)N([C@H](CSc2ccc(Br)cc2)c2ccccc2)CC1 | – | inconclusive: 18.3 µM [activator, single point] |
| O=C1C2CCCCN2C(=O)N1CCN1CCN(c2ccc([N+](=O)[O-])cc2)CC1 (configuration not stated) | – | inconclusive: 6.51 µM [inhibitor, partial curve] |
| Fc1ccccc1Nc1nc(-c2ccncc2)nc2ccccc12 | – | active: 2.59 µM |
| Cc1ccc(NC(=O)CSc2nc(N)c3cc4c(nc3n2)CCCC4)cc1 | inactive: 8.77% | – |
| Cc1cc(C(=O)CSc2nnnn2C)c(C)n1Cc1ccco1 | – | inconclusive: 9.2 µM [activator, partial curve] |
| OC1NC(=S)N(c2ccccc2)C1O (configuration not stated) | inactive: 16.7% | – |
| CCc1ccc(/C=C2/C(=O)NC(=O)N2C(C)=O)cc1 | – | inconclusive: 20.6 µM [activator, partial curve] |
| CCN(C(=O)c1ccco1)c1nnc(-c2cccnc2)s1 | – | inconclusive: 13 µM [activator, partial curve] |
| Cc1c(C(=O)O)cccc1-c1ccc(/C=N/Nc2ccc(Br)cc2)o1 | – | inconclusive: 13 µM [activator, partial curve] |
| CCOc1ccc(C(=O)NCC(=O)NCC(c2ccco2)N2CCCCC2)cc1 (configuration not stated) | – | inconclusive: 2.06 µM [activator, single point] |
| Cc1oc2c(c(C)cc3oc(=O)c(CC(=O)N[C@@H](CCCNC(N)=O)C(=O)O)c(C)c32)c1C | inactive: 11.9% | – |

| Structure (SMILES) | activity change, negative = inhibition | Potency |
| --- | --- | --- |
| C=CCn1c(=O)c2c(nc3n2CC(C)CN3c2cccc(OC)c2)n(C)c1=O (configuration not stated) | – | inconclusive: 13 µM [inhibitor, partial curve] |
| Cc1cc([N+](=O)[O-])nn1CC(=O)Nc1cnc2ccccc2c1 | – | inconclusive: 3.26 µM [activator, single point] |
| Cc1[nH]n(-c2ccccc2)c(=O)c1C=Nc1ccc(S(=O)(=O)Nc2nccs2)cc1 | inactive: -6% | – |
| CC(=O)Oc1cccc(/C=C2\C=C(c3ccc(C)cc3)OC2=O)c1 | inactive: -10.8% | – |
| CCn1c(SCC(=O)Nc2nc(C)cs2)nnc1-c1ccoc1C | – | inconclusive: 18.4 µM [inhibitor, partial curve, poor fit] |
| O=C(CNS(=O)(=O)c1cccs1)N1CCN(c2ccccc2F)CC1 | – | inconclusive: 20.6 µM [activator, partial curve, poor fit] |
| O=C(Nc1ccccc1C(=O)N1CCCCC1)c1ccc(Cl)cc1Cl | inactive: 0.294% | – |
| O=C(CSCC(=O)OCn1nnc2ccccc2c1=O)Nc1ccc(Cl)cc1 | inactive: 12.6% | – |
| CC(OC(=O)c1nn(C)c(=O)c2ccccc12)C(=O)NC1CCCCC1C (configuration not stated) | – | inconclusive: 11.6 µM [activator, partial curve, poor fit] |
| c1ccc(-n2c(-c3cccs3)nc3nc4ccccc4nc32)cc1 | – | inconclusive: 10.3 µM [inhibitor, partial curve] |
| CC(C)(C)c1ccc(NC(=S)NCc2cccnc2)cc1 | – | inconclusive: 9.2 µM [inhibitor, partial curve] |
| COc1cccc(C(=O)COc2ccc3c(C)cc(=O)oc3c2)c1 | inactive: -11.2% | – |
| CCCN1CCC(=NNc2ccc(S(=O)(=O)N3CCOCC3)cc2[N+](=O)[O-])CC1 | – | inconclusive: 0.651 µM [inhibitor, full curve, poor fit] |
| CCCN1CCc2c(sc(NC(=O)Cc3ccc(F)cc3)c2C(N)=O)C1 | inactive: -3.65% | – |
| CCC1CCCCN1C(=O)COc1ccc(N(C)S(=O)(=O)c2ccc(C)cc2)cc1 (configuration not stated) | – | inconclusive: 18.3 µM [inhibitor, single point] |
| COc1cc(OC)c(N(C)S(=O)(=O)c2cccc(C(=O)OCc3c(C)noc3C)c2)cc1Cl | – | active: 18.3 µM |
| O=[N+]([O-])c1ccc(N2CCCCC2)cc1NCCOc1ccccc1 | inactive: 14.8% | – |
| CCOC(=O)c1ccccc1NC(=O)CSc1ncc(C(=O)OCC)c(N)n1 | – | inconclusive: 18.4 µM [inhibitor, single point] |
| CCCCCCN=C1CC(C)(C)CC(=O)/C1=C(/O)CCC | – | inconclusive: 29.1 µM [inhibitor, single point] |
| O=C(COC(=O)c1cc(S(=O)(=O)N2CCc3ccccc3C2)ccc1Cl)NCc1ccco1 | inactive: 19.1% | – |
| Cc1ccc(S(=O)(=O)N2CCC(C(=O)N3CCCC(C(F)(F)F)C3)CC2)cc1C (configuration not stated) | inactive: -12.1% | – |
| O=C(NCCSCc1ccccc1)c1ccc(C2SCC(=O)N2Cc2ccccc2)cc1 (configuration not stated) | – | inconclusive: 18.4 µM [inhibitor, single point] |
| Cc1nc(NCCOc2ccccc2)sc1C(=O)Nc1ccccc1 | – | inconclusive: 23.1 µM [activator, partial curve] |

Record cards, from the list above:
CCCN1CCC(=NNc2ccc(S(=O)(=O)N3CCOCC3)cc2[N+](=O)[O-])CC1 in the list: Potency: inconclusive: 0.651 µM [inhibitor, full curve, poor fit]
Cc1cc([N+](=O)[O-])nn1CC(=O)Nc1cnc2ccccc2c1 in the list: Potency: inconclusive: 3.26 µM [activator, single point]
